Tests used:
Assay in all cases: Cell proliferation assay (Sulforhodamine B), IC50
KPC ID95 = assay type: cell-based, C57/BL6 mice; details: Mus musculus; KPC ID95, 96 hours of treatment; read-out: IC50 96 h mean ± SD
Protocol: (§1) FIG. 1. Pancreatic Cancer Cell lines features. A. Basal mRNA basal levels of EMT markers Vimentin and E-Cadherin in PDAC cell lines L3.6pl, BxPC3, COLO357, PANC28, PANC1, ASPC1 and MIAPACA2, in normal pancreatic cells HPDE cells, as well as in 2 established PDX-derived primary cells KPC ID11 and KPC ID95 were determined by qRT-PCR. […] Cells were grown for 48 h before preparation of cell lysates. Proteins were separated by SDS-PAGE and transferred to PVDF membranes using standard protocols. The membranes were probed with specific antibodies and Ponceau Red as total protein loading controls. Data represents representative results of at least three independent experiments.
(§2) Cell proliferation was measured in 96-well plates in cells untreated and treated with described drugs as single agent or in combination. […] Synergism, additivity, and antagonism were quantified after an evaluation of the Combination Index (CI), which was calculated by the Chou-Talalay equation with CalcuSyn software (Biosoft, Cambridge, UK-Chou T C. Cancer Res. 2010 Jan. 15; 70(2):440-6.), as described elsewhere (Terranova-Barberio M, J Exp Clin Cancer Res. 2017; 36(1):177); Bruzzese et al, J Cell Physiol 2011, 226(9):2378-2390). […] The DRI determined the magnitude of dose reduction allowed for each drug when given in combination, compared with the concentration of a single agent that is needed to achieve the same effect. […]

KPC ID11 = assay type: cell-based, C57/BL6 mice; details: Mus musculus; KPC ID11, 96 hours of treatment; read-out: IC50 96 h mean ± SD
Protocol: as §1, §2

BxPC3 = assay type: cell-based; details: Homo sapiens, BXPC-3; BxPC3, 96 hours of treatment; read-out: IC50 96 h mean ± SD
Protocol: (§3) Cell proliferation was measured in 96-well plates in cells untreated and treated with described drugs as single agent or in combination. Cell proliferation was measured using a spectrophotometric dye incorporation assay (Sulforhodamine B) an the inhibitory concentration of 50% of cells (IC50) was calculated for each drug, as previously described (Di Gennaro et al Br J Cancer 2010, 103(11):1680-1691). Drugs combination studies were based on concentration-effect curves generated as a plot of the fraction of unaffected (surviving) cells versus drug concentration after 96 h of treatment. Synergism, additivity, and antagonism were quantified after an evaluation of the Combination Index (CI), which was calculated by the Chou-Talalay equation with CalcuSyn software (Biosoft, Cambridge, UK-Chou T C. Cancer Res. 2010 Jan. 15; 70(2):440-6.), as described elsewhere (Terranova-Barberio M, J Exp Clin Cancer Res. 2017; 36(1):177); Bruzzese et al, J Cell Physiol 2011, 226(9):2378-2390). […] The DRI determined the magnitude of dose reduction allowed for each drug when given in combination, compared with the concentration of a single agent that is needed to achieve the same effect. […] The formed colonies were fixed with TCA (50%) and measured using a spectrophotometric dye incorporation assay (Sulforhodamine B or crystal violet). […] 3D microtissues were maintained in the incubator and photographed by Opera Phenix microscope (Perkin Elmer) air objective magnification 5× and/or scored by Cell Titer-Glo® 3D Cell Viability Assay (Promega) by using a Multimode Reader Cytation 5 (Biotek).
(§4) Inventors first evaluated by SRB colorimetric assay the antiproliferative effect of different statins (Simvastatin-SIM, Lovostatin-LOV and Atorvastatin-ATOR) and HDAC inhibitors (Panobinostat-PAN, Vorinostat-VOR, Valproic acid-VPA and Entinostat-MS-275) on a panel of PDAC cell lines with different genetic and phenotypic features (PANC28, PANC1, ASPC1, BxPC3, MIAPACA2, L3.6pl, KPC ID11 AND KPC ID95) (Table 1).

MDA-PANC28 = assay type: cell-based; details: Homo sapiens, MDA-Panc-28; MDA-PANC28, 96 hours of treatment; read-out: IC50 96 h mean ± SD
Protocol: as §3, §4

COLO357 = assay type: cell-based; details: Homo sapiens; COLO357, 96 hours of treatment; read-out: IC50 96 h mean ± SD
Protocol: as §3, §4

For `O=C(CCCCCCC(=O)Nc1ccccc1)NO` [VOR, Vorinostat], the IC50 (KPC ID95) was 1900 ± 150 nM, the IC50 (KPC ID11) was 2500 ± 140 nM and the IC50 (BxPC3) was 1100 ± 300 nM. It also gave an IC50 (MDA-PANC28) of 1600 ± 500 nM and an IC50 (COLO357) of 1000 ± 200 nM.

Reference: patent US20250213523A1, “COMBINATION OF HDAC INHIBITORS AND STATINS FOR USE IN THE TREATMENT OF PANCREATIC CANCER” (ISTITUTO NAZIONALE TUMORI IRCCS - FONDAZIONE G. PASCALE, priority 2022, published 2025)
